The source of these data is article PMC9066967.

These are yes or no findings as the source states them, for the method shown. Binding seen in cells or lysates may run through a third protein. Some binding calls cover weakened binding; strength is not graded here.

The assay concerns the target p53 (human (endogenous in Beas-2B)) (UniProt P04637). The assay is described as follows: co-IP; endogenous proteins in lysate of Beas-2B cells treated with CSE for 4 h; which antibody precipitated and which detected is not told.

B1: Retinoid-related orphan receptor-α (protein, UniProt P35398 1-523)
chain: MESAPAAPDPAASEPGSSGADAAAGSRETPLNQESARKSEPPAPVRRQSYSSTSRGISVTKKTHTSQIEIIPCKICGDKSSGIHYGVITCEGCKGFFRRSQQSNATYSCPRQKNCLIDRTSRNRCQHCRLQKCLAVGMSRDAVKFGRMSKKQRDSLYAEVQKHRMQQQQRDHQQQPGEAEPLTPTYNISANGLTELHDDLSNYIDGHTPEGSKADSAVSSFYLDIQPSPDQSGLDINGIKPEPICDYTPASGFFPYCSFTNGETSPTVSMAELEHLAQNISKSHLETCQYLREELQQITWQTFLQEEIENYQNKQREVMWQLCAIKITEAIQYVVEFAKRIDGFMELCQNDQIVLLKAGSLEVVFIRMCRAFDSQNNTVYFDGKYASPDVFKSLGCEDFISFVFEFGKSLCSMHLTEDEIALFSAFVLMSADRSWLQEKVKIEKLQQKIQLALQHVLQKNHREDGILTKLICKVSTLRALCGRHTEKLMAFKAIYPDIVRLHFPPLYKELFTSEFEPAMQIDG
Regarding B1, the binding entry is on record as “binds”.
